Test results as given in patent US20250163147A1.
Results are given in words; binding and its absence hold for the method and conditions named. Some binding calls cover weakened binding; strength is not graded here. Tags and fused reporters may be left off the sequences shown.

Legend:
[1] = target: T1, human DCIR-Fc (human) (UniProt Q9UMR7); assay: ELISA, antibody coated on plate (10 µg/ml), DCIR-Fc 5 µg/ml in solution, detected with peroxidase anti-human Fc
T1 sequence (looked up): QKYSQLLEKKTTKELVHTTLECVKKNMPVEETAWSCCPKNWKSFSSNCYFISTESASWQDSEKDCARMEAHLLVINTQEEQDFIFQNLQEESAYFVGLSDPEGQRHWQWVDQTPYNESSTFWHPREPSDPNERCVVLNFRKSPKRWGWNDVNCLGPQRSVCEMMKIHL

[2] = target: T2, mouse DCIR-Fc (mouse) (UniProt Q9QZ15); assay: as above
T2 sequence (looked up): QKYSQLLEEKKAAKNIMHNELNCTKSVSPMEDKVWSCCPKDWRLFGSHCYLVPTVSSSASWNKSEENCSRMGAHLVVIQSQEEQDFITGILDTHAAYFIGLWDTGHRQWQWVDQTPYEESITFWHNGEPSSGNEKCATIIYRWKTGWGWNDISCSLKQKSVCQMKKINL

B1: anti-DCIR antagonist antibody (5A3D8) (antibody, V domains shown)
VH: EVQLQQSGPELVKPGASVKMSCKASGYTFTSYVMHWVKQKPGQGLEWIGYINPYNDGTKYNEKFKGKATLTSDKSSSTAYMELSSLTSEDYAVYYCARSYKRYDWYPRWGAGTTV
VL: DIVMTQSQKFMSTSVGDRVSVTCKASQNVGTNVAWYQQKPGQSPKALIYSASYRYSGVPDRFTGSGSGTDFTLTISNVQSEDLAEYFCQQYNSYPLTFGGGTKLEIK
B1 was tested, and the binding [1] was “binds” and the binding [2] was “binds”.
